PubChem BioAssay AID1224826 – NIAID, 2016
The deposit covers about 17,000 reagents; below is a random part of them. Of all reagents, about 1,110 (6.6%) got an active call. 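Active means lowered or raised reporter signal; replicate intensities are raw and not normalised per plate.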 Some reagents were tested in more than one well and are listed for each.

Assay: 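Regulators of Tlr4 signalling leading to Tnf-alpha expression in macrophages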 (primary screen)
System: RAW264.7 G9 macrophages from mouse bearing reporters for p65 (GFP) and the Tnf promoter (mCherry)
Reagents: siRNA pool against mouse genes, 100 nM
Timing: 16 h of LPS stimulation, after 2 days of siRNA transfection
Challenge: bacterial lipopolysaccharide (Salmonella minnesota R595), 10 ng/ml
Read-out: 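Nuclear mCherry signal of the Tnf promoter reporter measured by imaging after background removal, scaled to each plate median and turned into robust z-scores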
Direction: Tnf reporter robust z-score: higher = stronger Tnf promoter reporter signal after LPS; Tnf reporter intensity: higher = stronger Tnf promoter reporter signal
Call rule: 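a well counts as active at a score of -1.3 or below (Tlr4 knock-down control median) or above 3 (raised signal); controls and wells holding fewer than 50 cells are excluded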
Meaning of the calls: active = Tnf reporter clearly lowered or raised; inactive = no clear change in Tnf reporter

gene knocked down,Tnf reporter robust z-score,fewer than 50 cells in well,"Tnf reporter intensity, replicate 1","Tnf reporter intensity, replicate 2",call
"Mrgprx1 (MAS-related GPR, member X1)",-0.8,enough cells in well,190,64.3,inactive
"Mrgprx1 (MAS-related GPR, member X1)",-1.23,enough cells in well,131,163,inactive
"Psmc1 (protease (prosome, macropain) 26S subunit, ATPase 1)",,fewer than 50 cells per well; well left out of calls,147,384,inactive
Or5af2 (olfactory receptor family 5 subfamily AF member 2),-0.27,enough cells in well,162,111,inactive
Frrs1 (ferric-chelate reductase 1),1.31,enough cells in well,213,156,inactive
"Tnfaip1 (tumor necrosis factor, alpha-induced protein 1 (endothelial))",-1.02,enough cells in well,165,80.4,inactive
Dnajb8 (DnaJ heat shock protein family (Hsp40) member B8),1.85,enough cells in well,250,222,inactive
Cyth4 (cytohesin 4),0.76,enough cells in well,321,231,inactive
Khdrbs3,2.62,enough cells in well,402,219,inactive
Vps54 (VPS54 GARP complex subunit),-0.1,enough cells in well,115,86.2,inactive
Prelid3b (PRELI domain containing 3B),,fewer than 50 cells per well; well left out of calls,106,58.9,inactive
"Coprs (coordinator of PRMT5, differentiation stimulator)",1.03,enough cells in well,256,120,inactive
Kmt5a (lysine methyltransferase 5A),-1.13,enough cells in well,98.6,99.7,inactive
Skint9 (selection and upkeep of intraepithelial T cells 9),-1.19,enough cells in well,97.7,97.1,inactive
Atp5mf (ATP synthase membrane subunit f),-0.73,enough cells in well,124,128,inactive
"Celf6 (CUGBP, Elav-like family member 6)",,fewer than 50 cells per well; well left out of calls,40.8,132,inactive
Magea5 (MAGE family member A5),-0.47,enough cells in well,191,97.6,inactive
Mpnd (MPN domain containing),0.65,enough cells in well,277,108,inactive
"Brcc3 (BRCA1/BRCA2-containing complex, subunit 3)",,fewer than 50 cells per well; well left out of calls,124,149,inactive
Sugp1 (SURP and G patch domain containing 1),-0.13,enough cells in well,105,87.7,inactive
Obscn,-0.44,enough cells in well,200,105,inactive
Flrt1 (fibronectin leucine rich transmembrane protein 1),0.3,enough cells in well,259,106,inactive
Mrpl19 (mitochondrial ribosomal protein L19),-0.82,enough cells in well,160,50.4,inactive
"Sfi1 (Sfi1 homolog, spindle assembly associated (yeast))",,fewer than 50 cells per well; well left out of calls,58.4,23.7,inactive
